# PubChem BioAssay AID720505 – Drosophila RNAi Screening Center | 2013
# Purpose: 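Fly regulators or components of the CRAC channel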 (primary screen)
# Cells: Drosophila S2R+ cells
# Knock-down reagent: long dsRNA against Drosophila genes
# Challenge: thapsigargin (2 µM) in calcium-free buffer to empty internal stores, then 2 mM calcium added back
# Detection: 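Fluo-4 signal in 384-well plates read on a FLIPR after thapsigargin (2 µM, calcium-free) store depletion and 2 mM calcium add-back; unnormalised mean endpoint per well; screen run twice, selected wells retested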
# Reading the numbers: calcium signal and retest calcium signal: higher = more calcium entry after store depletion
# Active means: 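About 1500 genes called as lowering calcium entry, by varying amounts, judged against per-plate control wells with STIM1 as positive and Rho1 as negative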
# Calls: active = called as lowering calcium entry; inactive = not called
# The deposit covers about 20,000 reagents; shown is an unselected part of those that have a named target and a result. Of all reagents, about 2,100 (10%) got an active call. 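Raw plate signals without normalisation; calls rest on control-based scores that were not deposited; replicate 2 separates called from uncalled poorly.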 A plus sign joins genes that one reagent is predicted to hit. Not stated in the record: the amount of reagent, the time to read-out.
The first 8 records as a preview:
Target gene,DRSC id,"calcium signal, replicate 1","calcium signal, replicate 2","retest calcium signal, replicate 1","retest calcium signal, replicate 2",Call
CG14244,DRSC14739,88.4,130,,,inactive
Grx3,DRSC02966,85.6,127,,,inactive
GMF,DRSC01928,85.1,149,,,inactive
Nnf1a,DRSC06394,74.3,94.2,,,inactive
Deaf1,DRSC11143,85.9,192,5930,133,inactive
Deaf1,DRSC22786,136,165,,,inactive
CG17075,DRSC00483,98.8,151,,,inactive
CG30056,DRSC21752,172,111,,,inactive

Results, from the start:
Target gene,DRSC id,"calcium signal, replicate 1","calcium signal, replicate 2","retest calcium signal, replicate 1","retest calcium signal, replicate 2",Call
CG14244,DRSC14739,88.4,130,,,inactive
Grx3,DRSC02966,85.6,127,,,inactive
GMF,DRSC01928,85.1,149,,,inactive
Nnf1a,DRSC06394,74.3,94.2,,,inactive
Deaf1,DRSC11143,85.9,192,5930,133,inactive
Deaf1,DRSC22786,136,165,,,inactive
CG17075,DRSC00483,98.8,151,,,inactive
CG30056,DRSC21752,172,111,,,inactive
D19B,DRSC11134,90.7,78.9,,,inactive
CG34040,DRSC03902,87.4,6642,,,inactive
Lcp65Ag3 + Lcp65Ag2 + Lcp65Ag1,DRSC11214,64.7,46.9,,,active
Lcp65Ag3 + Lcp65Ag2 + Lcp65Ag1,DRSC11215,69.9,49,,,inactive
CG2871,DRSC18230,216,127,10641,160,inactive
CG2871,DRSC21719,114,91.8,,,inactive
Irk3,DRSC02047,93,89.4,,,inactive
Daao1,DRSC06131,149,165,,,inactive
Pka-C3,DRSC09402,,,,,active
Pka-C3,DRSC11254,123,148,,,inactive
Snap29,DRSC04721,88.6,154,,,inactive
CG18190,DRSC06714,135,113,,,inactive
scpr-A + scpr-C + scpr-B,DRSC15715,97.8,110,,,inactive
CG4660,DRSC18378,195,102,,,inactive
CG13510,DRSC04152,96,153,,,inactive
NimB4,DRSC01884,90,134,,,inactive
Trm7-34,DRSC16171,118,102,,,inactive
otk,DRSC07658,111,175,,,inactive
CG43394,DRSC01013,163,94.1,,,inactive
CG43394,DRSC21835,98.7,172,,,inactive
Dhc1,DRSC16503,160,98.7,,,inactive
CG14711 + Zaf1,DRSC14934,175,140,,,inactive
Panx,DRSC04563,109,104,,,inactive
Eip78C,DRSC11864,83,167,,,inactive
Eip78C,DRSC23097,100,121,,,inactive
CG4318,DRSC19887,122,93,,,inactive
CG9150,DRSC03148,143,106,,,inactive
rumi,DRSC15177,183,232,,,inactive
cbt,DRSC00655,82.7,147,,,inactive
CG17219,DRSC00486,56.9,86.7,,,active
ND-MWFE,DRSC06364,119,155,,,inactive
Enoph,DRSC12201,69.8,98.1,,,active
CG13170,DRSC06298,88.1,112,,,inactive
CG8303,DRSC07140,182,130,,,inactive
Ssb-c31a,DRSC03443,141,112,,,inactive
ND-51,DRSC03145,95.6,216,,,inactive
CG31467,DRSC16048,123,101,,,inactive
CG31266,DRSC15747,164,177,,,inactive
CG13847,DRSC14697,169,267,,,inactive
CG13847,DRSC23172,143,106,,,inactive
Ubc6,DRSC12370,78.7,92,,,active
CG31698,DRSC22226,110,199,,,inactive
mTerf3,DRSC11759,124,94.8,,,inactive
Bruce,DRSC16015,167,84.2,,,inactive
CG12480,DRSC19460,98.5,130,6767,98.9,inactive
CG43336,DRSC15765,93.9,129,,,inactive
CG17803,DRSC15275,146,113,10557,161,inactive
CG17803,DRSC22811,77.4,113,,,inactive
Gtpx,DRSC08221,99.2,133,,,inactive
Gtpx,DRSC22117,87.1,125,,,inactive
Slu7,DRSC14729,86.5,92.8,,,active
zyd,DRSC20716,215,114,,,inactive
ppk11,DRSC02737,213,168,,,inactive
CG12219,DRSC17829,138,110,,,inactive
Swip-1,DRSC02083,106,86.5,,,inactive
Swip-1,DRSC02084,98.7,88.3,,,inactive
Atox1,DRSC22416,72.9,134,,,inactive
Mat89Ba,DRSC14540,135,216,,,inactive
Or59b,DRSC04632,93.1,186,,,inactive
CG4820,DRSC15654,98.1,83.9,,,inactive
PMP34,DRSC21939,109,203,,,inactive
CG17560,DRSC15242,119,146,,,inactive
bi,DRSC18742,241,128,,,inactive
Tim23,DRSC21240,111,132,,,inactive
drl,DRSC03523,109,88.8,,,inactive
htk,DRSC20029,76.2,77.8,,,active
htk,DRSC20031,166,138,,,inactive
CG17110,DRSC15173,242,159,,,inactive
CG31886,DRSC03248,100,82.5,,,inactive
CG10581,DRSC11623,109,106,,,inactive
Rich,DRSC11607,133,132,,,inactive
Cyp303a1,DRSC03300,110,107,,,inactive
crc,DRSC03513,192,75.9,,,inactive
mAcon1,DRSC01853,160,100,,,inactive
Sas-4,DRSC12505,94.8,147,,,inactive
